No constants are given. Whether binding was seen depends on the method and setting. Some results given as binding are weak or reduced against the parent protein; the word gives no strength.
Biological target: KIT WT D4-5蛋白 (human) (UniProt P10721)
Experiment: ELISA, D4-5 protein coated, antibody 0.03-66.67 nM

Chains of the proteins cited; added tags and fusions are not shown. Lines headed by an entry give the natural chain unless they say otherwise; changes in a name come on top. A line that says so, or that is headed by a name, gives the form on record, which may keep a tag or linker.
KIT WT D4-5蛋白 (P10721, form named): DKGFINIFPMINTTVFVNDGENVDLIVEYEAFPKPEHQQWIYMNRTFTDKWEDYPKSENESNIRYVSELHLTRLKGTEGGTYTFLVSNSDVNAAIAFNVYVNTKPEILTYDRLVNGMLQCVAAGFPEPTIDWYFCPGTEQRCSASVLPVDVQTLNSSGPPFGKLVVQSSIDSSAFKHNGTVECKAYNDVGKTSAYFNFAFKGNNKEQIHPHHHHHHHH

binding: binds
B1: 单克隆抗体3G2 (antibody, V domains shown, not shown: a dimerising Fc or GST)
VH: EVQLQESGPGLVKPSQSLSLTCTVAGYSITSDYAWNWIRQFPGNRLEWVGYISYSGSTSYNPSLKSRISITRDTSQNQFFLQLNSVTTEDTATYYCTRWRYRYTLAMDYWGQGTSVTVSS
VL: DIVLTQSPAITAASLGQKVTITCSASSSISYIHWYQQKSGTSPKPWIYEIYKLASGVPPRFSGSGSGTSYSLTISSMEAEDAAIYYCQQWNYPFTFGSGTKLEIKR
